Some results were stated once for a whole list of compounds, not compound by compound.
Target: T1, human Z A1AT (Homo sapiens, UniProt P01009, E366K)
T1 construct: expressed in transfected cells; host or cells: HEK-Z cells (human embryonic kidney cell line)
Assay: A1AT cell secretion assay using HEK-Z cells (ELISA of supernatant)
Assay type: cell-based
Conditions: at 33 nM
Protocol: HEK-Z cells, a human embryonic kidney cell line stably transfected with the human Z A1AT gene, were plated into 96 well plates (3.0×10^5 cells/ml with 200 μl of media/well) overnight at 37° C. in a humidified atmosphere containing 5% CO2. Following incubation cells were washed with 200 μl serum-free media three times and media was replaced with treatments in quadruplicate using serum free media containing either vehicle, 10 μM suberanilohydroxamic acid (SAHA) or a compound of the invention (at concentrations of 10, 33, 100 and 333 nM) for 48 h in a 37° C. incubator in a final volume of 200 μl. […]
Briefly, a 96 well plate was coated with human A1AT capture antibody overnight at room temperature (1:180 dilution from stock, 100 μl final volume/well). […] After which, 50 μl stop solution (2M H2SO4) was added and optical density (OD) of each well was read at 450 nm with 570 nm blank subtracted from each well using a microplate reader. A 4 parameter logistic curve was constructed using GraphPad Prism 7 and A1AT concentrations were determined in each sample by interpolation from a standard curve and multiplying by the appropriate dilution factor.

By UniProt entry, the sequences of proteins in these tests, tags left out. Residues count along the entry.
UniProt P01009, 25-418 E366K: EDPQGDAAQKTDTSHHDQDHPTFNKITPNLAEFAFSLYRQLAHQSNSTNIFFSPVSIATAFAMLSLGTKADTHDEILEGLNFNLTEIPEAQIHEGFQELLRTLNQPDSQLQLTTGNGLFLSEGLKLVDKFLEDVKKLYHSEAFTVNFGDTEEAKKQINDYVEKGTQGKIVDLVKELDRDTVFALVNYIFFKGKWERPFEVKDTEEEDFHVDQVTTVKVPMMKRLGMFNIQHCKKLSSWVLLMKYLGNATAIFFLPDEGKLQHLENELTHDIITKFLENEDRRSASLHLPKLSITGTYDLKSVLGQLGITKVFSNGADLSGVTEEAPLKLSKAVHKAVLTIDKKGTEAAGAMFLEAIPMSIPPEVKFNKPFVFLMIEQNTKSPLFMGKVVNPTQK

With `O=c1ccncn1Cc1ccc(-c2ncco2)cc1` [Example 1, 3-(4-(oxazol-2-yl)benzyl)pyrimidin-4(3H)-one] the “secretion of Z A1AT from HEK-Z cells” value was “increase secretion”.

— US12365672B2, “Compounds and their use for the treatment of alpha1-antitrypsin deficiency” (CENTESSA PHARMACEUTICALS (UK) LIMITED, priority 2019, dated 2025)
